Laboratory results taken from the supplement of paper PMC12823440, “Inhibitors supercharge kinase turnover through native proteolytic circuits” (Nature, 2025).
This is one part of the list. The calls rarely recur for the same compound in another form.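 Kinases, fused to nanoluciferase, were expressed in K562 cells; luminescence was measured every 4 h from 2 to 18 h as percent of control (DMSO = 100%, positive control = 0%). A time point is decreased if signal falls significantly (2 sigma). Hits were called by the authors by a rule that is not shown; the count of time points alone does not decide it.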

Protein sequences, listed by entry. Tags and fused reporters are not part of them. Lines headed by an entry give the natural chain unless they say otherwise; changes in a name come on top.
UniProt P48729: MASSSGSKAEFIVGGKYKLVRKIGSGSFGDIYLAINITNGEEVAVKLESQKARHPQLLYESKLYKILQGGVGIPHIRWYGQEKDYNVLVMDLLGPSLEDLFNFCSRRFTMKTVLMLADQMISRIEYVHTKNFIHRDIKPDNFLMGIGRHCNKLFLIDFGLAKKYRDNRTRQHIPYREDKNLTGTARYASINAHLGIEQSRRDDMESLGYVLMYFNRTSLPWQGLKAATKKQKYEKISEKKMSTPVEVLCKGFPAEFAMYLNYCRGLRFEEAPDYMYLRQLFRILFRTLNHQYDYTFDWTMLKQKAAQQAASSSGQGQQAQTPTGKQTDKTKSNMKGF
UniProt Q9Y463, whole entry, looked up: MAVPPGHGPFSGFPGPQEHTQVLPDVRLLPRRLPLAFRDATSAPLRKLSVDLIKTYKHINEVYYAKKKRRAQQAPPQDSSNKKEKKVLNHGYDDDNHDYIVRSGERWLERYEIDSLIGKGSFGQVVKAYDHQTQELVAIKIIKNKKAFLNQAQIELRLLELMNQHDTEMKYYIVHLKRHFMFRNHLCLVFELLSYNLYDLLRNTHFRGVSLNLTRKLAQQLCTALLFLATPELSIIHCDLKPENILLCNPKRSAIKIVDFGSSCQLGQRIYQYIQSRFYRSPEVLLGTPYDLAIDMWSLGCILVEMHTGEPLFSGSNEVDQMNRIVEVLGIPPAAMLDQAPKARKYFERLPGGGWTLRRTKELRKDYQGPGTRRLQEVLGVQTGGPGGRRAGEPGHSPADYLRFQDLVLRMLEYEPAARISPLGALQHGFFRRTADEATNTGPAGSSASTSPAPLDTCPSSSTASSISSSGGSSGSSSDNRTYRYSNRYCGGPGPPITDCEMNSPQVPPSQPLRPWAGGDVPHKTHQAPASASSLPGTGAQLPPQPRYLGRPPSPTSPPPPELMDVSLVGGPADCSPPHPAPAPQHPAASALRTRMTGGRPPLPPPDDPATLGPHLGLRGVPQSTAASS
UniProt Q92630: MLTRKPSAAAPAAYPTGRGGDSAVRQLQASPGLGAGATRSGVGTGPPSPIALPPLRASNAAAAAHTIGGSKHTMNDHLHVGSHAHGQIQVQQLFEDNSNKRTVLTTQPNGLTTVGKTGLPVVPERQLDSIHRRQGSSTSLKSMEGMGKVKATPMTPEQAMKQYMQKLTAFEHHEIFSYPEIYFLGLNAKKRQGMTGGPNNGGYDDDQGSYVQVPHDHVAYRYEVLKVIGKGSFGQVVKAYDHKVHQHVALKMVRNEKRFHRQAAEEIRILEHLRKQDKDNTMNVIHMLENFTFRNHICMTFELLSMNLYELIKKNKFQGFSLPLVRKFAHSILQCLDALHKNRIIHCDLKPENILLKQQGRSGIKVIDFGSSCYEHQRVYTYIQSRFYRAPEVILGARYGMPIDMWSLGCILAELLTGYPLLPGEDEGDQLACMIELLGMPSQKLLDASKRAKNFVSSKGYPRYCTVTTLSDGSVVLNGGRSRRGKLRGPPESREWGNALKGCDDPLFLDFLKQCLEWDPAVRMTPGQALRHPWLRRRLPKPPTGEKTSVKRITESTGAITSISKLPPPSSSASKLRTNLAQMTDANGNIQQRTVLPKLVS
UniProt P29317, whole entry: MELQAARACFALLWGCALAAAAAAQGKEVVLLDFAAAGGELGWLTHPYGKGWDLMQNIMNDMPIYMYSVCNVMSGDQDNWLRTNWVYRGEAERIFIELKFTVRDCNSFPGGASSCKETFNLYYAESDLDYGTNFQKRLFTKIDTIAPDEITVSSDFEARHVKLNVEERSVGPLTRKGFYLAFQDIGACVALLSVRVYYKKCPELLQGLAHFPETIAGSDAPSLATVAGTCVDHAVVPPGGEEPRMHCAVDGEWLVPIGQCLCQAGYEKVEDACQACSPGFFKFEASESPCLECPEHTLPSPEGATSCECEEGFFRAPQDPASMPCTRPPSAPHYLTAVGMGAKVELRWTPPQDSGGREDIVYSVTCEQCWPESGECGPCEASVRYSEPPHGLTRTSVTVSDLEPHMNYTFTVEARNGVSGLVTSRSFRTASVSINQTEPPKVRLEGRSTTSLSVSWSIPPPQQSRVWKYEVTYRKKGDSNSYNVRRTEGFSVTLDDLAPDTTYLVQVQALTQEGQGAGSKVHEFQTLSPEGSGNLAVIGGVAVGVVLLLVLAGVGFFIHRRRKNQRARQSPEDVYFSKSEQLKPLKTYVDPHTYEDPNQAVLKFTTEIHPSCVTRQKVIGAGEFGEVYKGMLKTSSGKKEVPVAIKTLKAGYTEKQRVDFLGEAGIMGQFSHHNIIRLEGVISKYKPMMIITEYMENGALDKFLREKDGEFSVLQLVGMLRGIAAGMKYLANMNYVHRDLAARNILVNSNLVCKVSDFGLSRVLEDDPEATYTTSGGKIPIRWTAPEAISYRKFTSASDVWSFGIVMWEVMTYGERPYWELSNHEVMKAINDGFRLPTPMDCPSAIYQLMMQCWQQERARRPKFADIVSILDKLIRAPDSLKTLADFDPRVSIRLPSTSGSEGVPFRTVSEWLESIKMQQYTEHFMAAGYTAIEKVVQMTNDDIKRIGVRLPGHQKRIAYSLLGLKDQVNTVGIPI
UniProt Q15303, whole entry R711C: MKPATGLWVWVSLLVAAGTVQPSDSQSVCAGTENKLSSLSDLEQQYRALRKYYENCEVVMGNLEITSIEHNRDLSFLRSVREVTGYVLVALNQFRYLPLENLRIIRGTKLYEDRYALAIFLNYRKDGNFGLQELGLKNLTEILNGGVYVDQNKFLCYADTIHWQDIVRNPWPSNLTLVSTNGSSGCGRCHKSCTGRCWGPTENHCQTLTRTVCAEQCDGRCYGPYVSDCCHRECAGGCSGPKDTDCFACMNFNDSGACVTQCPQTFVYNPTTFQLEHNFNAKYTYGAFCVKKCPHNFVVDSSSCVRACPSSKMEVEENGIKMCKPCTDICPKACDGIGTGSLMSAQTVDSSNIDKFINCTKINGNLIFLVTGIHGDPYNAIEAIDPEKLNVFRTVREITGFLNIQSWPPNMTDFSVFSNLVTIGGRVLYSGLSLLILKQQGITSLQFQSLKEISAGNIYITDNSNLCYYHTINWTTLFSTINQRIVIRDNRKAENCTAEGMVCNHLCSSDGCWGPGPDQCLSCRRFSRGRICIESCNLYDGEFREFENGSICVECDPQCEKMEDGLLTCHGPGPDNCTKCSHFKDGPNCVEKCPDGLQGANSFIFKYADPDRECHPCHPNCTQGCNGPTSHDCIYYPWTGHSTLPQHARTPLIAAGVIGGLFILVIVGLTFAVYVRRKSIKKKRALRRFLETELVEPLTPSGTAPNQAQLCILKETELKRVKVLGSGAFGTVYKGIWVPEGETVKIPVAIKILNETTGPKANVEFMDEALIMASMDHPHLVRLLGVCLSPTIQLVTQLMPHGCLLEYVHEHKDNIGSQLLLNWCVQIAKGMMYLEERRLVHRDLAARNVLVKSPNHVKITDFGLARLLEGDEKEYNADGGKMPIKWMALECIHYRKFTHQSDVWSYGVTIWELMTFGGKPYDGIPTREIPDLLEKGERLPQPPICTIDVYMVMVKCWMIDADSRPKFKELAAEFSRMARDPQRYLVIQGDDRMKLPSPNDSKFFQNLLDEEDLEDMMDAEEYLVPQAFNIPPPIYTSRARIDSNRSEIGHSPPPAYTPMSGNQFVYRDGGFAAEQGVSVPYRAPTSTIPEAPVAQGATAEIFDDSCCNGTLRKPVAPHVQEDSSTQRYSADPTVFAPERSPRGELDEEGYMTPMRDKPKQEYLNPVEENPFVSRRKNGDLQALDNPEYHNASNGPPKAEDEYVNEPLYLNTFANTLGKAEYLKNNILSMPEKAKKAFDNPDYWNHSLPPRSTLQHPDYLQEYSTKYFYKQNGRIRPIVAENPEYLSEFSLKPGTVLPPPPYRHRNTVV
UniProt O75460: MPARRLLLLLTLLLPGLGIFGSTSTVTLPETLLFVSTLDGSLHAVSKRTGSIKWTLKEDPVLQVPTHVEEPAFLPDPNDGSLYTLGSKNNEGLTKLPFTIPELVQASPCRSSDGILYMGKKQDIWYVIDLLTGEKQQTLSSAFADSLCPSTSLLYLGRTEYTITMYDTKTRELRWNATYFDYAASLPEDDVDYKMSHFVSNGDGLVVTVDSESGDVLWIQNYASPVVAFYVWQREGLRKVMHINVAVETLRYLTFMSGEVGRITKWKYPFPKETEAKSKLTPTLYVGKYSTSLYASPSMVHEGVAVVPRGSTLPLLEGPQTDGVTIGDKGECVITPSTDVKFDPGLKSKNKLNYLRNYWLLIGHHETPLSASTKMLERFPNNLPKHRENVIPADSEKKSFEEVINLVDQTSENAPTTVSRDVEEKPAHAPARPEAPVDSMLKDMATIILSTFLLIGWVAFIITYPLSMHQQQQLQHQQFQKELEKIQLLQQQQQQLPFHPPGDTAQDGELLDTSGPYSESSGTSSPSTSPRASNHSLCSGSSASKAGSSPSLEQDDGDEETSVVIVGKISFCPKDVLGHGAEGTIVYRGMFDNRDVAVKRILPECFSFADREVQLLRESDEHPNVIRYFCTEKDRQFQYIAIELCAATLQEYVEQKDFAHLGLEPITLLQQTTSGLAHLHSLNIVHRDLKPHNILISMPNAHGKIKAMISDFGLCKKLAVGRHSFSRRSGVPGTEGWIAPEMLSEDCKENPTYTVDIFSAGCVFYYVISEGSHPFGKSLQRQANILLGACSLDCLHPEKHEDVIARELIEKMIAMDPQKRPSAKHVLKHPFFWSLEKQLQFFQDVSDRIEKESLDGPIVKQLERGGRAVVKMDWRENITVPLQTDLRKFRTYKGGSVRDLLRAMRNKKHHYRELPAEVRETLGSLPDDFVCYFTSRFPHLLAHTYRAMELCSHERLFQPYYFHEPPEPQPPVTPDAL
UniProt P21802, whole entry, looked up: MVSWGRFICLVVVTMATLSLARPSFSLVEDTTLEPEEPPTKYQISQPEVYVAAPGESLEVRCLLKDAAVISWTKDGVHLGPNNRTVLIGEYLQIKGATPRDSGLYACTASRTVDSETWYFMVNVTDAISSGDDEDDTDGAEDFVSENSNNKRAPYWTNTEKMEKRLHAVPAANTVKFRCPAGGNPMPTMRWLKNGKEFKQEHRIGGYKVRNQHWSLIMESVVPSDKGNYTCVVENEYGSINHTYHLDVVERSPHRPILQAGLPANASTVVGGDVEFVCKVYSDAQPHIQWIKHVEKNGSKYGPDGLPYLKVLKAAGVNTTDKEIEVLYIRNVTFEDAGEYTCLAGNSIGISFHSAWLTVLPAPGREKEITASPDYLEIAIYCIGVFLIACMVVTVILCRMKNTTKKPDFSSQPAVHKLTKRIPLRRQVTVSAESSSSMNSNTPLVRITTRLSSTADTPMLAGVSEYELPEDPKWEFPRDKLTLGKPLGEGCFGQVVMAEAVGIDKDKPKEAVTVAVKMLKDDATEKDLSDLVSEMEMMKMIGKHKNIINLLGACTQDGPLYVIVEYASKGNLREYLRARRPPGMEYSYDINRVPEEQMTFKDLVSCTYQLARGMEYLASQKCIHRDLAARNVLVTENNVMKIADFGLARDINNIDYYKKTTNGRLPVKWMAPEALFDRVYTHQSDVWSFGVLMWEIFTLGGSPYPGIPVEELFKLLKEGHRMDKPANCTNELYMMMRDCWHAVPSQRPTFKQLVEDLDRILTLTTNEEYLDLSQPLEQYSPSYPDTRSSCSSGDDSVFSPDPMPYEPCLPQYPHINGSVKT
UniProt P22607, whole entry, looked up: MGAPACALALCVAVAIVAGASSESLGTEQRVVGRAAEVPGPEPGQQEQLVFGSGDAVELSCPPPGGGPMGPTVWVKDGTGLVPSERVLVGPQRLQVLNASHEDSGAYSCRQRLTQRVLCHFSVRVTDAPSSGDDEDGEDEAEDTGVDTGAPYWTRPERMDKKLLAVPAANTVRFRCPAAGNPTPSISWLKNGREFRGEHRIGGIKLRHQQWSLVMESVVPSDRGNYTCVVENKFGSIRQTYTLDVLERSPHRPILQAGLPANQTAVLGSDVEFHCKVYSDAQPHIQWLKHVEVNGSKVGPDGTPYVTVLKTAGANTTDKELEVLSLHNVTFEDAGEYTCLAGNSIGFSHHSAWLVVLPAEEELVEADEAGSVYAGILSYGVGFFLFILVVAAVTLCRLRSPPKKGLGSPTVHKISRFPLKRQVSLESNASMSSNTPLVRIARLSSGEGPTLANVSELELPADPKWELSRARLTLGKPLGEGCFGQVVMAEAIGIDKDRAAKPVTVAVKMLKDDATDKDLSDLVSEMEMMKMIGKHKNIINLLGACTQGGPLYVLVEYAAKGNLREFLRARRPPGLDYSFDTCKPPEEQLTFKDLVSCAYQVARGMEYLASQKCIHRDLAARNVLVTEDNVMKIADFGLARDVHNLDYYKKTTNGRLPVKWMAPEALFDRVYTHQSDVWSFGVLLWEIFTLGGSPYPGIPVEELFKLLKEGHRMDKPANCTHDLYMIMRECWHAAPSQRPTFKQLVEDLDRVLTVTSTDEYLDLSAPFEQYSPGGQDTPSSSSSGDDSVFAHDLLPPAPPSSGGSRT

Tests used:
Experiment in all cases: number of time points (of 5) at which kinase-Nluc abundance scored as decreased, DMSO-normalised (count); higher = more persistent destabilization
Conditions in all cases: K562; 2-18 h
CSNK1A1 = CSNK1A1 (UniProt P48729)
CSNK1D = CSNK1D (UniProt P48730)
DDR1 = DDR1 (UniProt Q08345)
DYRK1B = DYRK1B (UniProt Q9Y463)
DYRK2 = DYRK2 (UniProt Q92630)
EGFR = EGFR (UniProt P00533)
EGFR_G719S = EGFR_G719S (UniProt P00533)
EGFR_G719S_T790M = EGFR_G719S_T790M (UniProt P00533)
EGFR_L718V = EGFR_L718V (UniProt P00533)
EGFR_L858R = EGFR_L858R (UniProt P00533)
EGFR_L861Q = EGFR_L861Q (UniProt P00533)
EGFR_T790M = EGFR_T790M (UniProt P00533)
EPHA2 = EPHA2 (UniProt P29317)
ERBB3 = ERBB3 (UniProt P21860)
[1] = biological target: ERBB4_R711C (clone: ERBB4_mut) (UniProt Q15303)
ERN1 = ERN1 (UniProt O75460)
FGFR1 = FGFR1 (UniProt P11362)
FGFR2 = FGFR2 (UniProt P21802)
FGFR3 = FGFR3 (UniProt P22607)
FGR = FGR (UniProt P09769)

Measured: number of time points

Oc1c(F)cc(-c2cnccc2-c2ccc(N3CCOCC3)cc2)cc1F (10 µM)
0: all assays above

Cc1cc(Nc2cc(N)ncn2)c(=O)n2c1C(=O)NC21CCCCC1 [Tomivosertib] (10 µM)
0: all assays above

O=C(O)c1ccc(/C=C/S(=O)(=O)Cc2ccc(Cl)cc2)cc1 [Recilisib] (10 µM)
0: all assays above

Cc1cc(Nc2cc(N3CCN(C)CC3)nc(Nc3ccc([N+](=O)[O-])cc3)n2)n[nH]1 (2.5 µM)
0: all assays above

c1nc2c(NC3CCCCC3)nc(Nc3ccc(N4CCOCC4)cc3)nc2[nH]1 [Reversine] (10 µM)
4: DYRK2
1: DDR1 | EGFR_L858R | ERBB3 | FGFR1
2: EGFR_L861Q
0: all other assays above

CCCCCC(=O)N[C@@H](Cc1ccc(O)cc1)C(=O)OC (10 µM)
0: all assays above

O=Nc1c(-c2c(O)[nH]c3cc(Br)ccc23)[nH]c2ccccc12 [GSK 3 Inhibitor IX] (2.5 µM)
3: EGFR_L861Q | [1]
0: all other assays above

C=CC(=O)Nc1cc(Nc2nccc(-c3cn(C)c4ccccc34)n2)c(OC)cc1OCCN(C)C [Rezivertinib] (2.5 µM)
0: all assays above

COc1cc(-c2cc(-c3ccc(N4CCNCC4)cc3)cnc2C)cc(OC)c1OC (10 µM)
0: all assays above

CC1(N)CCN(c2cccnc2NC(=O)c2nc(-c3ncccc3C(F)(F)F)cnc2N)CC1 [Darovasertib] (10 µM)
0: all assays above

Cc1ccc(C(=O)NC2CC2)cc1-n1ncc(C(=O)c2cccc(C#N)c2)c1N [Acumapimod] (10 µM)
2: DYRK2 | EGFR_L861Q | ERBB3 | FGFR2
3: [1]
0: all other assays above

CNC(=O)c1ccc2c(c1)ncn2-c1ccc(CC(=O)OC(C)(C)C)cc1 (10 µM)
0: all assays above

O=c1c2c([nH]n1-c1nc3ccccc3s1)CCCC2 (10 µM)
0: all assays above

O=C(NCCN1CCOCC1)Nc1nc2ccc(Sc3nnc4ccc(-c5ccc(F)cc5)nn34)cc2s1 (10 µM)
0: all assays above

O=c1cc(N2CCOCC2)oc2c(-c3ccc4c(c3)OCCO4)csc12 (2.5 µM)
0: all assays above

COc1ccc(-c2cc(=O)c3c(OC)cc(OC)c(OC)c3o2)cc1 [6-Demethoxytangeretin] (10 µM)
0: all assays above

Retrieved by structure from the entries so far (two):
O=c1cc(N2CCOCC2)oc2c(-c3ccc4c(c3)OCCO4)csc12 (2.5 µM)
0: all assays above

O=C(NCCN1CCOCC1)Nc1nc2ccc(Sc3nnc4ccc(-c5ccc(F)cc5)nn34)cc2s1 (10 µM)
0: all assays above

More structures.

Cc1c(C)c(NCC(=O)N(C)C2CCN(Cc3ccc(C(N)=O)cc3)CC2)c(C)c(C)c1N (10 µM)
0: all assays above

CC(Cc1ccc(O)c(O)c1)C(C)Cc1ccc(O)c(O)c1 (stereo not given) [Nordihydroguaiaretic acid] (2.5 µM)
0: all assays above

COc1cc2ncnc(Nc3ccc(O)c(Br)c3)c2cc1OC (10 µM)
1: ERBB3
0: all other assays above

CO[C@H]1C[C@@H]2CC[C@@H](C)[C@@](O)(O2)C(=O)C(=O)N2CCCC[C@H]2C(=O)O[C@H]([C@H](C)C[C@@H]2CC[C@@H](OC(=O)C(C)(CO)CO)[C@H](OC)C2)CC(=O)[C@H](C)/C=C(\C)[C@@H](O)[C@@H](OC)C(=O)[C@H](C)C[C@H](C)/C=C/C=C/C=C/1C [Temsirolimus] (2.5 µM)
0: all assays above

C=CC(=O)N1CCN(C(=O)CNc2cc(I)c(Cl)cc2O)CC1 [K-Ras(G12C) inhibitor 12] (10 µM)
0: all assays above

COc1ccc(Br)cc1NC(=O)Nc1cccc2c1ccn2Cc1ccnc(N)c1 (2.5 µM)
1: FGFR2
3: [1]
2: DYRK2 | EGFR_L861Q
0: all other assays above

Cc1ccc(NC(=O)Nc2cc(C(F)(F)F)ccc2F)cc1Nc1ccc2c(c1)NC(=O)/C2=C\c1ccc[nH]1 (2.5 µM)
1: FGFR1
0: all other assays above

CC(C)n1c(=O)n(C)c2cnc3cc(F)c(-c4ccc(OCCCN5CCCCC5)nc4)cc3c21 (10 µM)
4: DYRK1B
0: all other assays above

Nc1nccc(-c2c(-c3ccc(F)cc3)ncn2C2CCCCC2)n1 (10 µM)
0: all assays above

Cc1c(Cl)cccc1S(=O)(=O)Nc1nc(NCCc2ccccc2)nc2c1CN(Cc1ccccc1)CC2 (2.5 µM)
3: DDR1
0: all other assays above

Nc1nc2c(nc(Br)n2[C@@H]2O[C@@H]3COP(=O)(O)O[C@H]3[C@H]2O)c(=O)[nH]1 [8-Bromo-cGMP (sodium)] (10 µM)
0: all assays above
